Results on ten molecules are retold here after patent US20250283871A1, “COMPOSITIONS AND METHODS FOR MODULATING THE INTERACTION BETWEEN SS18-SSX FUSION ONCOPROTEIN AND NUCLEOSOMES” (Dana-Farber Cancer Institute, Inc., priority 2020, published 2025).

The labels stand for the following.
B1: GGCX (protein, UniProt P38435 2-758, looked up)
Vitamin K-dependent …: AVSAGSARTSPSSDKVQKDKAELISGPRQDSRIGKLLGFEWTDLSSWRRLVTLLNRPTDPASLAVFRFLFGFLMVLDIPQERGLSSLDRKYLDGLDVCRFPLLDALRPLPLDWMYLVYTIMFLGALGMMLGLCYRISCVLFLLPYWYVFLLDKTSWNNHSYLYGLLAFQLTFMDANHYWSVDGLLNAHRRNAHVPLWNYAVLRGQIFIVYFIAGVKKLDADWVEGYSMEYLSRHWLFSPFKLLLSEELTSLLVVHWGGLLLDLSAGFLLFFDVSRSIGLFFVSYFHCMNSQLFSIGMFSYVMLASSPLFCSPEWPRKLVSYCPRRLQQLLPLKAAPQPSVSCVYKRSRGKSGQKPGLRHQLGAAFTLLYLLEQLFLPYSHFLTQGYNNWTNGLYGYSWDMMVHSRSHQHVKITYRDGRTGELGYLNPGVFTQSRRWKDHADMLKQYATCLSRLLPKYNVTEPQIYFDIWVSINDRFQQRIFDPRVDIVQAAWSPFQRTSWVQPLLMDLSPWRAKLQEIKSSLDNHTEVVFIADFPGLHLENFVSEDLGNTSIQLLQGEVTVELVAEQKNQTLREGEKMQLPAGEYHKVYTTSPSPSCYMYVYVNTTELALEQDLAYLQELKEKVENGSETGPLPPELQPLLEGEVKGGPEPTPLVQTFLRRQQRLQEIERRRNTPFHERFFRFLLRKLYVFRRSFLMTCISLRNLILGRPSLEQLAQEVTYANLRPFEAVGELNPSNTDSSHSNPPESNPDPVHSEF
B2: TM9SF4 (protein, UniProt Q92544 24-642, looked up)
Transmembrane 9 superfamily …: FYVPGVAPINFHQNDPVEIKAVKLTSSRTQLPYEYYSLPFCQPSKITYKAENLGEVLRGDRIVNTPFQVLMNSEKKCEVLCSQSNKPVTLTVEQSRLVAERITEDYYVHLIADNLPVATRLELYSNRDSDDKKKEKDVQFEHGYRLGFTDVNKIYLHNHLSFILYYHREDMEEDQEHTYRVVRFEVIPQSIRLEDLKADEKSSCTLPEGTNSSPQEIDPTKENQLYFTYSVHWEESDIKWASRWDTYLTMSDVQIHWFSIINSVVVVFFLSGILSMIIIRTLRKDIANYNKEDDIEDTMEESGWKLVHGDVFRPPQYPMILSSLLGSGIQLFCMILIVIFVAMLGMLSPSSRGALMTTACFLFMFMGVFGGFSAGRLYRTLKGHRWKKGAFCTATLYPGVVFGICFVLNCFIWGKHSSGAVPFPTMVALLCMWFGISLPLVYLGYYFGFRKQPYDNPVRTNQIPRQIPEQRWYMNRFVGILMAGILPFGAMFIELFFIFSAIWENQFYYLFGFLFLVFIILVVSCSQISIVMVYFQLCAEDYRWWWRNFLVSGGSAFYVLVYAIFYFVNKLDIVEFIPSLLYFGYTALMVLSFWLLTGTIGFYAAYMFVRKIYAAVKID
B3: TOP1 (protein, UniProt P11387 2-765, looked up)
DNA topoisomerase 1: SGDHLHNDSQIEADFRLNDSHKHKDKHKDREHRHKEHKKEKDREKSKHSNSEHKDSEKKHKEKEKTKHKDGSSEKHKDKHKDRDKEKRKEEKVRASGDAKIKKEKENGFSSPPQIKDEPEDDGYFVPPKEDIKPLKRPRDEDDADYKPKKIKTEDTKKEKKRKLEEEEDGKLKKPKNKDKDKKVPEPDNKKKKPKKEEEQKWKWWEEERYPEGIKWKFLEHKGPVFAPPYEPLPENVKFYYDGKVMKLSPKAEEVATFFAKMLDHEYTTKEIFRKNFFKDWRKEMTNEEKNIITNLSKCDFTQMSQYFKAQTEARKQMSKEEKLKIKEENEKLLKEYGFCIMDNHKERIANFKIEPPGLFRGRGNHPKMGMLKRRIMPEDIIINCSKDAKVPSPPPGHKWKEVRHDNKVTWLVSWTENIQGSIKYIMLNPSSRIKGEKDWQKYETARRLKKCVDKIRNQYREDWKSKEMKVRQRAVALYFIDKLALRAGNEKEEGETADTVGCCSLRVEHINLHPELDGQEYVVEFDFLGKDSIRYYNKVPVEKRVFKNLQLFMENKQPEDDLFDRLNTGILNKHLQDLMEGLTAKVFRTYNASITLQQQLKELTAPDENIPAKILSYNRANRAVAILCNHQRAPPKTFEKSMMNLQTKIDAKKEQLADARRDLKSAKADAKVMKDAKTKKVVESKKKAVQRLEEQLMKLEVQATDREENKQIALGTSKLNYLDPRITVAWCKKWGVPIEKIYNKTQREKFAWAIDMADEDYEF
B4: CHP1 (protein, UniProt Q99653 2-195, looked up)
Calcineurin B homologous …: GSRASTLLRDEELEEIKKETGFSHSQITRLYSRFTSLDKGENGTLSREDFQRIPELAINPLGDRIINAFFPEGEDQVNFRGFMRTLAHFRPIEDNEKSKDVNGPEPLNSRSNKLHFAFRLYDLDKDEKISRDELLQVLRMMVGVNISDEQLGSIADRTIQEADQDGDSAISFTEFVKVLEKVDVEQKMSIRFLH
B5: EHD4 (protein, UniProt Q9H223 1-541, looked up)
EH domain-containing protein 4: MFSWMGRQAGGRERAGGADAVQTVTGGLRSLYLRKVLPLEEAYRFHEFHSPALEDADFENKPMILLVGQYSTGKTTFIRYLLEQDFPGMRIGPEPTTDSFIAVMYGETEGSTPGNALVVDPKKPFRKLSRFGNAFLNRFMCSQLPNQVLKSISVIDSPGILSGEKQRISRGYDFCQVLQWFAERVDRIILLFDAHKLDISDEFSEAIKAFRGQDDKIRVVLNKADQVDTQQLMRVYGALMWSLGKVINTPEVLRVYIGSFWAQPLQNTDNRRLFEAEAQDLFRDIQSLPQKAAVRKLNDLIKRARLAKVHAYIISYLKKEMPSVFGKENKKRELISRLPEIYIQLQREYQISAGDFPEVKAMQEQLENYDFTKFHSLKPKLIEAVDNMLSNKISPLMNLISQEETSTPTQLVQGGAFDGTTEGPFNQGYGEGAKEGADEEEWVVAKDKPVYDELFYTLSPINGKISGVNAKKEMVTSKLPNSVLGKIWKLADCDCDGMLDEEEFALAKHLIKIKLDGYELPSSLPPHLVPPSHRKSLPKAD
B6: NDUFAF4 (protein, UniProt Q9P032 2-175, looked up)
NADH dehydrogenase …: GALVIRGIRNFNLENRAEREISKMKPSVAPRHPSTNSLLREQISLYPEVKGEIARKDEKLLSFLKDVYVDSKDPVSSLQVKAAETCQEPKEFRLPKDHHFDMINIKSIPKGKISIVEALTLLNNHKLFPETWTAEKIMQEYQLEQKDVNSLLKYFVTFEVEIFPPEDKKAIRSK
B7: TM9SF3 (protein, UniProt Q9HD45 29-589, looked up)
Transmembrane 9 superfamily …: DEHEHTYQDKEEVVLWMNTVGPYHNRQETYKYFSLPFCVGSKKSISHYHETLGEALQGVELEFSGLDIKFKDDVMPATYCEIDLDKEKRDAFVYAIKNHYWYQMYIDDLPIWGIVGEADENGEDYYLWTYKKLEIGFNGNRIVDVNLTSEGKVKLVPNTKIQMSYSVKWKKSDVKFEDRFDKYLDPSFFQHRIHWFSIFNSFMMVIFLVGLVSMILMRTLRKDYARYSKEEEMDDMDRDLGDEYGWKQVHGDVFRPSSHPLIFSSLIGSGCQIFAVSLIVIIVAMIEDLYTERGSMLSTAIFVYAATSPVNGYFGGSLYARQGGRRWIKQMFIGAFLIPAMVCGTAFFINFIAIYYHASRAIPFGTMVAVCCICFFVILPLNLVGTILGRNLSGQPNFPCRVNAVPRPIPEKKWFMEPAVIVCLGGILPFGSIFIEMYFIFTSFWAYKIYYVYGFMMLVLVILCIVTVCVTIVCTYFLLNAEDYRWQWTSFLSAASTAIYVYMYSFYYYFFKTKMYGLFQTSFYFGYMAVFSTALGIMCGAIGYMGTSAFVRKIYTNVKID
B8: ARVCF (protein, UniProt O00192 1-962, looked up)
Splicing regulator ARVCF: MEDCNVHSAASILASVKEQEARFERLTRALEQERRHVALQLERAQQPGMVSGGMGSGQPLPMAWQQLVLQEQSPGSQASLATMPEAPDVLEETVTVEEDPGTPTSHVSIVTSEDGTTRRTETKVTKTVKTVTTRTVRQVPVGPDGLPLLDGGPPLGPFADGALDRHFLLRGGGPVATLSRAYLSSGGGFPEGPEPRDSPSYGSLSRGLGMRPPRAGPLGPGPGDGCFTLPGHREAFPVGPEPGPPGGRSLPERFQAEPYGLEDDTRSLAADDEGGPELEPDYGTATRRRPECGRGLHTRAYEDTADDGGELADERPAFPMVTAPLAQPERGSMGSLDRLVRRSPSVDSARKEPRWRDPELPEVLAMLRHPVDPVKANAAAYLQHLCFENEGVKRRVRQLRGLPLLVALLDHPRAEVRRRACGALRNLSYGRDTDNKAAIRDCGGVPALVRLLRAARDNEVRELVTGTLWNLSSYEPLKMVIIDHGLQTLTHEVIVPHSGWEREPNEDSKPRDAEWTTVFKNTSGCLRNVSSDGAEARRRLRECEGLVDALLHALQSAVGRKDTDNKSVENCVCIMRNLSYHVHKEVPGADRYQEAEPGPLGSAVGSQRRRRDDASCFGGKKAKEEWFHQGKKDGEMDRNFDTLDLPKRTEAAKGFELLYQPEVVRLYLSLLTESRNFNTLEAAAGALQNLSAGNWMWATYIRATVRKERGLPVLVELLQSETDKVVRAVAIALRNLSLDRRNKDLIGSYAMAELVRNVRNAQAPPRPGACLEEDTVVAVLNTIHEIVSDSLDNARSLLQARGVPALVALVASSQSVREAKAASHVLQTVWSYKELRGTLQKDGWTKARFQSAAATAKGPKGALSPGGFDDSTLPLVDKSLEGEKTGSRDVIPMDALGPDGYSTVDRRERRPRGASSAGEASEKEPLKLDPSRKAPPPGPSRPAVRLVDAVGDAKPQPVDSWV
B9: TMED9 (protein, UniProt Q9BVK6 38-235, looked up)
Transmembrane emp24 …: LYFHIGETEKKCFIEEIPDETMVIGNYRTQLYDKQREEYQPATPGLGMFVEVKDPEDKVILARQYGSEGRFTFTSHTPGEHQICLHSNSTKFSLFAGGMLRVHLDIQVGEHANDYAEIAAKDKLSELQLRVRQLVEQVEQIQKEQNYQRWREERFRQTSESTNQRVLWWSILQTLILVAIGVWQMRHLKSFFEAKKLV
B10: HDHD5 (protein, UniProt Q9BXW7 24-423, looked up)
Haloacid dehalogenase-like …: AAGLQGRPARRCYAVGPAQSPPTFGFLLDIDGVLVRGHRVIPAALKAFRRLVNSQGQLRVPVVFVTNAGNILQHSKAQELSALLGCEVDADQVILSHSPMKLFSEYHEKRMLVSGQGPVMENAQGLGFRNVVTVDELRMAFPLLDMVDLERRLKTTPLPRNDFPRIEGVLLLGEPVRWETSLQLIMDVLLSNGSPGAGLATPPYPHLPVLASNMDLLWMAEAKMPRFGHGTFLLCLETIYQKVTGKELRYEGLMGKPSILTYQYAEDLIRRQAERRGWAAPIRKLYAVGDNPMSDVYGANLFHQYLQKATHDGAPELGAGGTRQQQPSASQSCISILVCTGVYNPRNPQSTEPVLGGGEPPFHGHRDLCFSPGLMEASHVVNDVNEAVQLVFRKEGWALE

In one data set the test system is BAF complex subunits and histone proteins. In words: Mass spectrometry proteomics of purified HA-SS18 WT and HA-SS18-SSX1 complexes (Tables 5A-5E). Details: species or system human. The following applies: HA-SS18SSX1_NE_peptides: protein co-purified with HA-SS18-SSX1 BAF complexes from soluble nuclear extract (NE), HEK-293T cells.
In the case of B1, the “Total (peptides)” value was 2 and the “Unique (peptides)” value is on record as 2.
Consider B2, for which the “Total (peptides)” value was 2 and the “Unique (peptides)” value turned out to be 2.
As for B3, the “Total (peptides)” value stood at 2 and the “Unique (peptides)” value is 2.
In the case of B4, the “Total (peptides)” value was determined as 2 and the “Unique (peptides)” value is 2.
Consider B5, for which the “Total (peptides)” value is recorded as 2 and the “Unique (peptides)” value was determined as 2.
Take B6: the “Total (peptides)” value turned out to be 2 and the “Unique (peptides)” value was 2.
Turning to B7, the “Total (peptides)” value was 2 and the “Unique (peptides)” value stood at 2.
With B8, the “Total (peptides)” value is reported as 2 and the “Unique (peptides)” value turned out to be 2.
Turning to B9, the “Total (peptides)” value was 2 and the “Unique (peptides)” value turned out to be 2.
On to B10, for which the “Total (peptides)” value was found to be 2 and the “Unique (peptides)” value came to 2.

Staying with this data set, now noted: HA-SS18WT_NE_peptides: proteins co-purified with HA-SS18 WT from nuclear extract (NE), HEK-293T.
For the molecule B1, the “Total (peptides)” value turned out to be 1 and the “Unique (peptides)” value is on record as 1.
On to B2, for which the “Total (peptides)” value was determined as 2 and the “Unique (peptides)” value is listed as 2.
As to B4, the “Total (peptides)” value is reported as 1 and the “Unique (peptides)” value is listed as 1.
As for B6, the “Total (peptides)” value is 2 and the “Unique (peptides)” value is reported as 2.
Consider B7, for which the “Total (peptides)” value came out at 2 and the “Unique (peptides)” value is listed as 2.
